Test results from paper doi:10.1101/2022.02.27.482165.
No constants are given. Whether binding was seen depends on the method and setting. In cells and extracts the contact can be indirect. Some results given as binding are weak or reduced against the parent protein; the word gives no strength.

Chains of the proteins cited; added tags and fusions are not shown.
UniProt O14497: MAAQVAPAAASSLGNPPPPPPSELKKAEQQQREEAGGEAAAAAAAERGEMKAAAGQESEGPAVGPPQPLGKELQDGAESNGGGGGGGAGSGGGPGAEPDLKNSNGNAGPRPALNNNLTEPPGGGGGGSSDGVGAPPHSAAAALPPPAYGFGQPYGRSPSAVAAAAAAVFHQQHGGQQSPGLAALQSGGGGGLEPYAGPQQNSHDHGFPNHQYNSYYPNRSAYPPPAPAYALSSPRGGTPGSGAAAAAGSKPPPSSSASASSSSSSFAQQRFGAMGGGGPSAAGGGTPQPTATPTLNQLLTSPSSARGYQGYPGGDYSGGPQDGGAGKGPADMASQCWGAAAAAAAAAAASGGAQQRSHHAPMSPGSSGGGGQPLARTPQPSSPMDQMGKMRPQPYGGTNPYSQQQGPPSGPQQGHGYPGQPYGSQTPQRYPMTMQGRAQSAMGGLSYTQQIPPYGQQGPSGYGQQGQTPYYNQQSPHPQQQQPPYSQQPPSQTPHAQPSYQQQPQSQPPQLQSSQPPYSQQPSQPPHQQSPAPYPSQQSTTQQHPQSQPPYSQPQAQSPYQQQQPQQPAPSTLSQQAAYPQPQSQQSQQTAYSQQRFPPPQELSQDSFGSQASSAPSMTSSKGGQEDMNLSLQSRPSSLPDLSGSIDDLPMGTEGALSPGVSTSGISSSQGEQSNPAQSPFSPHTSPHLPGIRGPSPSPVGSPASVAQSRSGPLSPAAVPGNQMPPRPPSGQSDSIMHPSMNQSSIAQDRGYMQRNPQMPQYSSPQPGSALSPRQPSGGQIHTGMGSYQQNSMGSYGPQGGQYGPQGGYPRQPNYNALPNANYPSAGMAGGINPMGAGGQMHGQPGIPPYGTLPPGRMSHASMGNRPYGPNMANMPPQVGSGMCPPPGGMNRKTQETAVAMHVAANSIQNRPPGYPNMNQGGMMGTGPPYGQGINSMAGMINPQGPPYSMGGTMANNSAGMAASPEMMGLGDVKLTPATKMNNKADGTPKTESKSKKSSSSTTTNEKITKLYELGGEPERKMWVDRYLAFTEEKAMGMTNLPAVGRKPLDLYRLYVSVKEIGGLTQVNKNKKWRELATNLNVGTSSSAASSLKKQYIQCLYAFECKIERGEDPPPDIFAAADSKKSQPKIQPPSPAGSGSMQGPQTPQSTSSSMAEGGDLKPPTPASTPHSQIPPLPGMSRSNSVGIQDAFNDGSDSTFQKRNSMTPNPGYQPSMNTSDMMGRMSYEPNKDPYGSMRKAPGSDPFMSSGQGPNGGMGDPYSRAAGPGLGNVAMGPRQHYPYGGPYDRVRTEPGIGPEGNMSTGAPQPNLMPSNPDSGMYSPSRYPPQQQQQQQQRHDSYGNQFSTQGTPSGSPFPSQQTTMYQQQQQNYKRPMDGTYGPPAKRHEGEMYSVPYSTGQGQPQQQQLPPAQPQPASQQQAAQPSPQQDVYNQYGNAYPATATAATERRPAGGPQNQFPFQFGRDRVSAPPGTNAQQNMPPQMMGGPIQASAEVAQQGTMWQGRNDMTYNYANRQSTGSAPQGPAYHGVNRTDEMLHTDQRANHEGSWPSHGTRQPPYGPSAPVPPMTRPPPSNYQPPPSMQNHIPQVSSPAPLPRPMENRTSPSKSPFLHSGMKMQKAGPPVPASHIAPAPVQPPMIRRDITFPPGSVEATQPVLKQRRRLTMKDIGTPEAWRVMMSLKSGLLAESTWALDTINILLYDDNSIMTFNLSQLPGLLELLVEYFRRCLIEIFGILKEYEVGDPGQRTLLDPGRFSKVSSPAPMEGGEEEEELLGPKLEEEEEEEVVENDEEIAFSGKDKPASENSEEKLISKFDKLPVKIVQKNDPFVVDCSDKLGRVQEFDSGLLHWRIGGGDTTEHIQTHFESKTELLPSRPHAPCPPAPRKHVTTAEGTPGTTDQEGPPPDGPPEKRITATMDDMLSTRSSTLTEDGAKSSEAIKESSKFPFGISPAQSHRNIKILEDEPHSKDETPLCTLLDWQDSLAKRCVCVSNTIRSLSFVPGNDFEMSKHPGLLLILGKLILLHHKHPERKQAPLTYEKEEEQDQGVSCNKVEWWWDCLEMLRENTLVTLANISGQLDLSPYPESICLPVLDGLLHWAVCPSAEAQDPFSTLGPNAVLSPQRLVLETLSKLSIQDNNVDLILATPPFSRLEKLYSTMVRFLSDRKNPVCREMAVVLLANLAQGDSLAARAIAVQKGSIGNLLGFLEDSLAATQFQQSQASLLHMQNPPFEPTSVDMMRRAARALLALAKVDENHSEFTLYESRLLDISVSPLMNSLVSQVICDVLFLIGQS
UniProt Q14839: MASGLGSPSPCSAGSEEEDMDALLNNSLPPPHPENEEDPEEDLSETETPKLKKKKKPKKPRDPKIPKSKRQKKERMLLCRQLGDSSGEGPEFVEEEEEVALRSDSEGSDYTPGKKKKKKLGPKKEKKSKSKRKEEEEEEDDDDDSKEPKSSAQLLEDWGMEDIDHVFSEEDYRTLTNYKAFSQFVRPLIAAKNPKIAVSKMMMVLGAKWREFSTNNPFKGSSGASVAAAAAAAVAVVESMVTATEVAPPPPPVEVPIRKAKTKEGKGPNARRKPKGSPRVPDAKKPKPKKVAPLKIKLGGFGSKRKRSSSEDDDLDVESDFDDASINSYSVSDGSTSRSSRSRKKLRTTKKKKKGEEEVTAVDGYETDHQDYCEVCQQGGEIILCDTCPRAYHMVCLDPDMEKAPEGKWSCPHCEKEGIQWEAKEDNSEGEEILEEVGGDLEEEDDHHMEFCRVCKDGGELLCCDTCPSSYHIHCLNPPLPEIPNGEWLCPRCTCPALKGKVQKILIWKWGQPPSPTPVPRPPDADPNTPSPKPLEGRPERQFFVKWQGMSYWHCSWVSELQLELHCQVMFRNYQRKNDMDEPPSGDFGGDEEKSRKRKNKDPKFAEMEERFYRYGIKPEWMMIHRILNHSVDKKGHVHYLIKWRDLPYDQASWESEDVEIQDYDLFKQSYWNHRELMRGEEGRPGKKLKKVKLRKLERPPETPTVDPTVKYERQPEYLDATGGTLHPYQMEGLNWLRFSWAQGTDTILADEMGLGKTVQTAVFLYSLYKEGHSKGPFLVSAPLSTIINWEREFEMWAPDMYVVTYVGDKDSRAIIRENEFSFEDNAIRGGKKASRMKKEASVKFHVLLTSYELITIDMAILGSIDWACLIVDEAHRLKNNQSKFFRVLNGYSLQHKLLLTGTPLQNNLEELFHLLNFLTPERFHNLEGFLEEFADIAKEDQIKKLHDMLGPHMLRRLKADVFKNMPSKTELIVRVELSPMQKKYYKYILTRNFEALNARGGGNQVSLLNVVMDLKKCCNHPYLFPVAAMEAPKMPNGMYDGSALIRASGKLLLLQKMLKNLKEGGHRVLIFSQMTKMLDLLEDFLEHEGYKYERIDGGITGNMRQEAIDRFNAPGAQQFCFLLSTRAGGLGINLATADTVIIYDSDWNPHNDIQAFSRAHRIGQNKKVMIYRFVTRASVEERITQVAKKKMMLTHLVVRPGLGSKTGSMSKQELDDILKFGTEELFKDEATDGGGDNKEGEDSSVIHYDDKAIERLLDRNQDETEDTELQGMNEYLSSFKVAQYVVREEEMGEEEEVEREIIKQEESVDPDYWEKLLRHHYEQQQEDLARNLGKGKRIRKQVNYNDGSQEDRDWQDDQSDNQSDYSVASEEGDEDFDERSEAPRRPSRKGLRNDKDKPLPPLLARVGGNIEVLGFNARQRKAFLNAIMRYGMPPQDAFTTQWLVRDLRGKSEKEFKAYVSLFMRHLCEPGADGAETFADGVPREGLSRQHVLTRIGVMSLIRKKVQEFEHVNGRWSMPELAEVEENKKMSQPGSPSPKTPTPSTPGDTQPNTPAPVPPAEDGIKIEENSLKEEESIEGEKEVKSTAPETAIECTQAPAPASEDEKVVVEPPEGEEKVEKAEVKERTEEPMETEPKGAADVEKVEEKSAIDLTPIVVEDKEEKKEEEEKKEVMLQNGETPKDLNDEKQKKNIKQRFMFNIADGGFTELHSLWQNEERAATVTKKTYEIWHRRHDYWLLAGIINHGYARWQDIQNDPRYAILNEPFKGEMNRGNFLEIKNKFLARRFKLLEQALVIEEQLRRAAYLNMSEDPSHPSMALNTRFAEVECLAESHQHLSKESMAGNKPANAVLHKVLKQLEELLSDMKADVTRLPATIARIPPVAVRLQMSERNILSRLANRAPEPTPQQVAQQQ

Biological target: ARID1A (human (endogenous in 12Z)) (UniProt O14497)
Assay: co-IP

binding: binds
Substance: CHD4 (from UniProt Q14839 1-1912)
